Experimental data: PubChem BioAssay AID1159578 (Peter MacCallum Cancer Centre, 2015)
Assay: 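siRNA pools altering how lymphatic endothelial cells close a scratch wound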 (primary screen). Cells: human lymphatic endothelial cells. Knock-down reagent: siRNA pool against human genes, 40 nM. Duration: 48 h after transfection. Read-out: 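Cells stained with dye and imaged after a scratch; covered wound area and nuclei counted, duplicates averaged, migration set against mock wells and turned into a robust z-score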. Scale: migration robust z-score: higher = faster migration into the scratch; migration relative to mock: higher = more scratch area covered than mock; nuclei per well: higher = more cells in the well. Call rule: 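Migration changed when robust z exceeds 2 or falls below -2 and mean nuclei number is at least 3300; otherwise not called changed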. Calls: active = migration changed; inactive = no migration change, or too few cells.
In all, the deposit lists about 18,000 reagents; shown is a random part of them. About 1,030 of them (5.7%) count as active. 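Inactive calls also include pools with fewer than 3300 nuclei, whose migration was not assessed.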 Raw values are not corrected between plates. Entries without a mark were called inactive. Reagents against one gene are numbered here. No sequences are given here.

The first 4 records as a preview:
no.	gene knocked down	reagent	migration robust z-score	migration class with cell-count check	migration relative to mock	nuclei per well, duplicate mean
1	TMEM106A (GeneID 113277)	1	1.71	migration z between -2 and 2; enough cells	1.33	6104
2	CCT8 (GeneID 10694)	1	-2.02 (active)	migration z below -2; enough cells	0.42	3626
3	XPNPEP2 (GeneID 7512)	1	0.28	migration z between -2 and 2; enough cells	0.86	3882
4	PPTC7 (GeneID 160760)	1	-1.38	migration z between -2 and 2; enough cells	0.54	5464

Main list, repeating the preview:
no.	gene knocked down	reagent	migration robust z-score	migration class with cell-count check	migration relative to mock	nuclei per well, duplicate mean
1	TMEM106A (GeneID 113277)	1	1.71	migration z between -2 and 2; enough cells	1.33	6104
2	CCT8 (GeneID 10694)	1	-2.02 (active)	migration z below -2; enough cells	0.42	3626
3	XPNPEP2 (GeneID 7512)	1	0.28	migration z between -2 and 2; enough cells	0.86	3882
4	PPTC7 (GeneID 160760)	1	-1.38	migration z between -2 and 2; enough cells	0.54	5464
5	SIX3 (GeneID 6496)	1	0.18	migration z between -2 and 2; enough cells	0.84	5514
6	OR6N1 (GeneID 128372)	1	0.64	migration z between -2 and 2; enough cells	1.05	5742
7	KIAA1328 (GeneID 57536)	1	-0.9	migration z between -2 and 2; enough cells	0.65	5800
8	TLCD5 (GeneID 219902)	1	-1.48	migration z between -2 and 2; enough cells	0.5	6062
9	SPNS1 (GeneID 83985)	1	-0.44	migration z between -2 and 2; enough cells	0.72	4690
10	NFIX (GeneID 4784)	1	0.18	migration z between -2 and 2; enough cells	0.84	6512
11	OR10G9 (GeneID 219870)	1	-1.64	migration z between -2 and 2; enough cells	0.46	6010
12	NICN1 (GeneID 84276)	1	1.91	migration z between -2 and 2; enough cells	1.38	5136
13	NUDT16 (GeneID 131870)	1	0.12	migration z between -2 and 2; enough cells	0.92	4433
14	CETP (GeneID 1071)	1	1.6	migration z between -2 and 2; enough cells	1.12	7010
15	H2BC9 (GeneID 8345)	1	-0.84	migration z between -2 and 2; enough cells	0.66	5459
16	PSAPL1 (GeneID 768239)	1	-0.77	migration z between -2 and 2; enough cells	0.68	6398
17	PPIL3 (GeneID 53938)	1	-0.67	migration z between -2 and 2; enough cells	0.68	5787
18	ANOS1 (GeneID 3730)	1	-0.05	migration z between -2 and 2; enough cells	0.8	4576
19	MRPL23 (GeneID 6150)	1	-2.37 (active)	migration z below -2; enough cells	0.26	3540
20	MYH2 (GeneID 4620)	1	-0.13	migration z between -2 and 2; enough cells	0.78	6608
21	PCGF1 (GeneID 84759)	1	-0.2	migration z between -2 and 2; enough cells	0.76	5200
22	ING2 (GeneID 3622)	1	-0.77	migration z between -2 and 2; enough cells	0.66	4890
23	TOM1L2 (GeneID 146691)	1	0.95	migration z between -2 and 2; enough cells	1.13	7004
24	ITLN1 (GeneID 55600)	1	-0.2	migration z between -2 and 2; enough cells	0.83	6827
25	DEFB121 (GeneID 245934)	1	1.66	migration z between -2 and 2; enough cells	1.31	6090
26	CLDN1 (GeneID 9076)	1	-0.74	migration z between -2 and 2; enough cells	0.7	3522
27	NEK11 (GeneID 79858)	1	-0.39	migration z between -2 and 2; enough cells	0.73	5840
28	KDM4A (GeneID 9682)	1	-1.95	migration z between -2 and 2; enough cells	0.43	5180
29	NFU1 (GeneID 27247)	1	-2.17 (active)	migration z below -2; enough cells	0.31	4000
30	TXNRD3 (GeneID 114112)	1	-0.5	migration z between -2 and 2; enough cells	0.71	6494
31	TXNRD3 (GeneID 114112)	2	0.64	migration z between -2 and 2; enough cells	1.05	5414
32	SULT2A1 (GeneID 6822)	1	0.86	migration z between -2 and 2; enough cells	0.97	4821
33	KCNK3 (GeneID 3777)	1	-1.58	migration z between -2 and 2; enough cells	0.5	6206
34	ITGB1BP2 (GeneID 26548)	1	0.46	migration z between -2 and 2; enough cells	1	6340
35	SETD4 (GeneID 54093)	1	1.52	migration z between -2 and 2; enough cells	1.28	5852
36	DRAM2 (GeneID 128338)	1	-0.18	migration z between -2 and 2; enough cells	0.84	4911
37	TMEM35A (GeneID 59353)	1	0.19	migration z between -2 and 2; enough cells	0.94	6075
38	ZNF587 (GeneID 84914)	1	-0.92	migration z between -2 and 2; enough cells	0.64	4288
39	FAHD1 (GeneID 81889)	1	0.36	migration z between -2 and 2; enough cells	0.88	6506
